# Experimental data reported in PubChem BioAssay AID2685 (National Center for Advancing Translational Sciences (NCATS), 2010).
# Some of the results follow. Further columns of the screen follow, without active or inactive calls. The list favours compounds with an active or inconclusive main result. Words in brackets tell the shape of the fitted curve; partial curves, single points and poor fits give uncertain potencies.
# Assay: qHTS Assay for Lipid Storage Modulators in Drosophila S3 Cells;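 for cell number change: cells counted by Cell Tracker Red CMTPX staining in the red channel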
# Conditions: BODIPY lipid droplet fluorescence, 18-24 h; for cell number change: measured here: cell count max response, cells fed with added oleic acid
# Summary of the method: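 Laser-scanning cytometry quantifies lipid droplet accumulation (500–530 nm total intensity; droplet/cell object ratio) in oleic acid-fed (400 uM added) Drosophila S3 cells treated with a concentration series. 20 uM Triacsin C defined 100% inhibition.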
# [1] = measured here: cell number channel AC50, cells fed with added oleic acid
# [2] = measured here: lipid fluorescence (Fed channel) AC50, cells fed with added oleic acid
Structure (SMILES),cell number change [%],AC50 [1],AC50 [2]
COc1ccccc1NC(=O)CSc1nnc(CC(=O)Nc2ccccc2C)n1C,21.8,–,–
CCOc1ccc2nc(SCC(=O)Nc3ccc4c(c3)OCO4)sc2c1,14.4,–,–
COC(=O)c1ccc(NC(=O)c2ccc(NC(=O)C3CCCO3)cc2)cc1 (stereo not drawn),59.3,"16.4 µM [rising, single point]","18.4 µM [rising, partial curve]"
O=C(c1ccco1)N1CCN(Cc2ccc(F)cc2Cl)CC1,–,–,"2.91 µM [falling, single point]"
COc1cccc(NC(=O)CCN2C(=O)c3ccccc3S2(=O)=O)c1,–,–,"0.731 µM [rising, full curve, poor fit]"
Cc1ccccc1Cn1cc(NS(=O)(=O)c2cn(C)nc2C)cn1,17.6,–,"2.91 µM [rising, full curve]"
CN(c1ccccc1)S(=O)(=O)c1cc(C(=O)OCC(=O)N2CCN(C(=O)c3ccco3)CC2)ccc1Cl,-114,–,–
Cc1nc2sc(C(c3ccc(Cl)cc3)N3CCN(C(=O)c4ccco4)CC3)c(O)n2n1 (stereo not drawn),4.19,–,"29.1 µM [falling, single point]"
COc1ccc(-c2cn(Cc3ccc(C(N)=O)cc3)c(CCN)n2)cc1,10.6,–,"0.461 µM [rising, full curve, poor fit]"
Cn1c(=O)n(C)c2cc(S(=O)(=O)Nc3ccccc3O)ccc21,15.9,–,"6.51 µM [falling, single point]"
CCC(=O)N1CCN(c2nc3ccccc3s2)CC1,18.9,–,"23.1 µM [rising, partial curve]"
O=C(Nc1ccc(F)cc1)/C(Cl)=C/c1ccccc1,-39.5,–,"6.51 µM [falling, single point]"
CS(=O)(=O)c1cccc(C(=O)Nc2ccc(S(=O)(=O)N3CCCCC3)cc2)c1,55.8,"14.6 µM [rising, partial curve]",–
CCCCN(C(=O)c1ccc(N2CCCC2=O)cc1)c1c(N)n(Cc2ccccc2)c(=O)[nH]c1=O,-5.16,–,"0.58 µM [falling, full curve]"
CCC(C)(C)C1CCc2c(sc(N)c2C(N)=O)C1 (stereo not drawn),-19,–,"13 µM [falling, partial curve, poor fit]"
Cc1nc2c3ccccc3n(CCN3CCCCC3)c2s1,31.3,"16.4 µM [rising, single point]",–

# Fetched by structure from above, 2 records:
Structure (SMILES),cell number change [%],AC50 [1],AC50 [2]
O=C(Nc1ccc(F)cc1)/C(Cl)=C/c1ccccc1,-39.5,–,"6.51 µM [falling, single point]"
CS(=O)(=O)c1cccc(C(=O)Nc2ccc(S(=O)(=O)N3CCCCC3)cc2)c1,55.8,"14.6 µM [rising, partial curve]",–

# Remaining list, next part:

Structure (SMILES),cell number change [%],AC50 [1],AC50 [2]
COc1cc2ccccc2cc1C(=O)N(CCN(C)C)c1nc2c(C)cccc2s1,37,–,–
Cc1ccc(S(=O)(=O)N(C)c2ccccc2C(=O)Nc2ccc(F)cc2F)cc1,-12.9,–,"29.1 µM [falling, single point]"
C=CCOc1ccc(CNc2nn[nH]n2)cc1OC,39,"16.4 µM [rising, partial curve, poor fit]",–
Nc1nc2ccc(C(=O)NC3CCCCC3)cc2s1,-2.11,"6.51 µM [rising, single point]","0.517 µM [falling, single point]"
NC(=O)N/N=C/c1c(O)ccc2oc3c(c12)CCCC3,15.9,–,"7.31 µM [rising, partial curve]"
CC(C)c1ccc(OCC(O)CN2CCCC2)cc1 (stereo not drawn),–,–,"29.1 µM [rising, single point]"
O=C(NC(=S)NNC(=O)c1ccco1)c1ccc(Br)cc1,-2.14,–,"0.00461 µM [falling, full curve, poor fit]"
C=C(C)C1Cc2c(C)nn(-c3cccc4ccccc34)c2C1 (stereo not drawn),–,"0.731 µM [rising, partial curve, poor fit]",–
O=C(CN1CCCCC1)Nc1cc(Cl)ccc1Cl,-47.4,"2.31 µM [falling, full curve]","0.92 µM [falling, full curve]"
O=C(N/N=C/c1ccccn1)c1cc(-c2ccc(Cl)s2)[nH]n1,20,–,–
O=C(c1ccc(Br)o1)N(c1ccc(Br)cc1)C1C=CS(=O)(=O)C1 (stereo not drawn),–,"2.59 µM [rising, partial curve]","0.164 µM [rising, full curve]"
CCOC(=O)c1c(C)nc2ccc(Cl)cc2c1-c1ccccc1,43.4,"7.31 µM [rising, partial curve, poor fit]","7.31 µM [rising, partial curve]"
COC(=O)c1c(NC(=O)CSc2nnc(-c3ccco3)n2Cc2ccccc2)sc(C)c1C,81.1,"0.411 µM [rising, full curve]",–
C[C@]12C(=O)N(c3ccc(Cl)cc3)C(=O)N1[C@H]1c3ccccc3OC[C@@H]1[C@H]2c1ccccc1,24.9,–,"0.0231 µM [rising, full curve]"
Clc1ccc(CN(Cc2ccccc2)C(c2cccs2)c2nnnn2C2CCCC2)cc1 (stereo not drawn),-50.2,"16.4 µM [falling, partial curve, poor fit]","23.1 µM [falling, single point]"
